Laboratory results as given in PubChem BioAssay AID1487 (National Center for Advancing Translational Sciences (NCATS), 2009).
Screen size: about 200,000 compounds; about 25 (0.01%) were called active. This list was built around the results that the source calls inconclusive (neither active nor inactive); the mix of calls is not that of the screen. The call rests on the fitted dose curve; in most records, active means well fitted inhibition curve with a large enough effect in the signal ratio, with a control signal flat (not every such curve was filed as active); inconclusive means small, poorly fitted or top-dose-only effect, or effect the other way, or a change in a side signal; inactive means flat fitted curve, though single readings scatter; the % refers to the signal ratio. Potencies beside an inconclusive call are fits to weak or partial responses and may not hold up.

Assay: qHTS Assay for Modulators of Lamin A Splicing
Conditions: HeLa LMNA splicing GFP/RFP minigene ratio, 48 h; ratio change, negative = inhibition: at 46.1 µM (top of the series) unless noted
How it was run: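 S3 HeLa cells stably expressing lamin A-EGFP splicing minigene plus DsRed2, 600 cells/well, 48 h compound exposure at 37C. Laser-scanning cytometry; analysed as GFP (500-530 nm)/RFP (575-640 nm) total intensity ratio; 0.5% DMSO vehicle.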
On the % scale 0 is the no-effect control and ±100 the full control effect; potency means the concentration at half of the fitted maximal effect.

Compound	Potency	ratio change, negative = inhibition
CC(=O)c1ccc(NS(=O)(=O)c2ccc3ccccc3c2)cc1	inconclusive: 14.1 µM [fluorescent, partial curve]	–
O=C(NC1=C(Nc2ccc(Cl)cc2)C(=O)c2ccccc2C1=O)c1ccccc1	–	inconclusive: -35.8%
CCOc1cc(S(=O)(=O)NCc2ccccc2)ccc1Br	–	inconclusive: -32% [at 46 µM]
O=C(O)CCCCCn1c(SCC(=O)c2ccc(O)c(O)c2)nc2ccsc2c1=O	–	inconclusive: 29.2%
COc1ccc(Cn2nnnc2C(c2ccncc2)N2CCOCC2)cc1 (stereo unspecified)	–	inactive: 2.43%
Cc1nn(Cc2ccccc2Cl)c(C)c1NC(=O)c1noc2c1CCCCC2	–	inconclusive: -46.2%
CN(C)CCCCSC(=N)N	–	inconclusive: -16.1%
CCN(CC)CCn1c(SCC(=O)NCc2ccccc2)nc2c(sc3ccccc32)c1=O	–	inconclusive: -2.03% [at 46 µM]
O=C(Nc1cccc(F)c1)c1cccnc1N1CCOCC1	–	inconclusive: 12.9%
CN(C)CCCN(C(=O)/C=C/c1cccs1)c1nc2c(F)cccc2s1	–	inconclusive: 342% [at 46 µM]
COCCNC(=O)c1ccc(Cn2c(SCC(=O)NC(C)C)nc3ccccc3c2=O)cc1	–	inactive: -5.84% [at 46 µM]
Cc1ccc2c(c1)cc(CN(Cc1cccs1)C(=O)c1ccco1)c1nnnn12	–	inconclusive: -25.7%
CCOC(=O)c1cnn(-c2ccccc2)c1-n1cccc1C(=O)C(=O)Nc1ccccc1C(F)(F)F	–	inconclusive: -24.1%
CS(=O)(=O)c1ccc(Cl)c(NC(=O)COC(=O)c2ccc(F)cc2Cl)c1	–	inconclusive: -8.29% [at 46 µM]
COc1cc(C(=O)NCC(c2cccnc2)N2CCN(c3ccc(F)cc3)CC2)cc(OC)c1OC (stereo unspecified)	inconclusive: 35.5 µM [cytotoxic, single point]	inconclusive: -0.824% [at 9.22 µM]
COc1ccc(CN(C)CC(=O)Nc2sc3c(c2C#N)CCC3)cc1OC	–	inconclusive: -49.7% [at 46 µM]
O=C(CSc1n[nH]c(-c2ccccc2)n1)NCc1cccc(C(=O)O)c1	–	inconclusive: 10.3% [at 46 µM]
Cc1ccccc1CNC(=O)c1ccc(-n2c(C)cc3c2CCCC3)cc1	inconclusive: 35.5 µM [cytotoxic, single point]	–
C#C[C@]1(O)CC[C@H]2[C@@H]3CCc4cc(OC)ccc4[C@H]3CC[C@@]21C	–	inconclusive: -16.2%
Cc1ccc(CC2CC(=O)N(Cc3ccco3)C2=O)cc1 (stereo unspecified)	–	inactive: 20.3%
CCC(C(=O)Nc1cccc(-c2cn3cccnc3n2)c1)c1ccccc1 (stereo unspecified)	–	inconclusive: -0.23% [at 46 µM]
COc1ccc(Br)cc1CNC(=O)CCCn1c(=O)c2cccn2c2ccccc21	inconclusive: 12.6 µM [cytotoxic, partial curve]	–
Cc1cc(C)c(/C=C(\C#N)C(N)=S)c(C)c1	–	inconclusive: -0.563%
N=c1n(Cc2ccccc2Cl)c2ccccc2n1CC(O)c1ccco1 (stereo unspecified)	–	inconclusive: -28% [at 46 µM]
Cc1ccc(Cl)cc1Nc1nc2ccccc2n2c(C)nnc12	–	inconclusive: 24.9% [at 46 µM]
CN(CCOc1ccc(NS(C)(=O)=O)cc1)CCc1ccc(NS(C)(=O)=O)cc1	–	inconclusive: 33%
CCOC(=O)c1ccc(NC(=O)CN2C(=O)c3cccnc3Oc3ccc(Cl)cc32)cc1	–	inconclusive: -22.4% [at 46 µM]

Compound	Potency	ratio change, negative = inhibition
Cc1ccc(N2CCn3c2nc2c3c(=O)n(CCc3ccccc3)c(=O)n2C)cc1C	–	inconclusive: 5.21% [at 46 µM]
COc1ccc(S(=O)(=O)NCc2ccncc2)cc1OC	–	inconclusive: -42.7%
Cc1n[nH]c(C)c1CCc1nc2c3ccccc3nc(SCC(=O)Nc3ccccc3F)n2n1	–	inconclusive: 10.7%
CC1CCCCN1C(=O)Nc1cccc(C(F)(F)F)c1 (stereo unspecified)	–	inconclusive: 35.7% [at 46 µM]
Cc1ccc(S(=O)(=O)N2CCN(S(=O)(=O)N3CCOCC3)CC2)cc1C	–	inactive: 8.04%
CCN(CC)C(=O)CSc1nc2cc3c(cc2c(=O)n1Cc1ccc(C(=O)NCCc2ccc(OC)c(OC)c2)cc1)OCO3	–	inactive: -24.4% [at 46 µM]
CCOc1ccc(N2C(=O)C3ON(c4ccccc4)C(c4cccs4)C3C2=O)cc1 (stereo unspecified)	–	inconclusive: -23% [at 46 µM]
COc1ccc(CNC(=O)c2cnn3c(C)c(Cc4ccc(F)cc4)c(C)nc23)cc1	–	inactive: -5.83% [at 46 µM]
CCOc1cc(N2CCOCC2)c(OCC)cc1NC(=O)CSc1ncccn1	–	inconclusive: -9.95% [at 46 µM]
O=C(CC1(O)C(=O)N(CN2CCOCC2)c2ccccc21)c1ccccc1 (stereo unspecified)	–	inconclusive: -7.36%
CCC(C(=O)OCc1cc(=O)n2nc(CCOC)sc2n1)c1ccccc1 (stereo unspecified)	–	inactive: -9.32% [at 46 µM]
CCCc1cc(C(=O)NNC(=S)NCC2CCCO2)cs1 (stereo unspecified)	–	inactive: -8.87%
CC(Sc1ccccc1)C(=O)Nc1ccc(N2CCOCC2)cc1 (stereo unspecified)	–	inactive: 2.58%
Cc1cc2nc(CCN3CCOCC3)n(S(=O)(=O)c3ccc(C(C)(C)C)cc3)c2cc1C	–	inactive: -3.4%
CCOC(=O)c1ccc(Nc2nc(=O)c3cccnc3s2)cc1	–	inconclusive: -33.7%
Cc1ccccc1C(=O)NNC(=S)NC(=O)c1ccccc1	–	inconclusive: -34.5%
O=C(O)c1ccc(C(=O)c2ccc3c(c2)C(=O)N(CC2CCCO2)C3=O)cc1 (stereo unspecified)	–	inconclusive: 13.5% [at 46 µM]
S=C(NCCCN1CCOCC1)Nc1ccc(Cl)cc1	–	inconclusive: 16.5%
Cc1cc(C(=O)N/N=C/c2cc(Cl)cc([N+](=O)[O-])c2O)c2ccccc2n1	inconclusive: 22.4 µM [falling, partial curve]	–
CCCCC1=CC2=C(c3ccco3)C(=O)C(C)(OC(=O)c3ccc(OC)cc3)C(=O)C2=CN1Cc1ccc2c(c1)OCO2 (stereo unspecified)	–	inconclusive: 31.8% [at 9.22 µM]
COc1ccc(CN2CCN(C(=O)c3ccco3)CC2)cc1OC	–	inactive: -27.1% [at 46 µM]
CCOc1ccc(C2C(C(=O)Nc3ccc(C)cc3C)=C(C)Nc3c(C(=O)Nc4ccc(C)cc4)cnn32)cc1OC (stereo unspecified)	–	inconclusive: 30.8% [at 46 µM]
CCOC(=O)c1sc(S(C)(=O)=O)c2c1CC(C)(C)C/C2=N/O	–	inactive: -21.4% [at 46 µM]
Cn1c(=O)n(C)c2cc(CNCc3ccc(C(=O)O)cc3)ccc21	–	inconclusive: 7.52% [at 46 µM]
COc1ccccc1CN(Cc1cc2c(C)ccc(C)c2[nH]c1=O)Cc1nnnn1Cc1ccco1	–	inactive: 6.37%
O=C(c1ccc(Cl)c(S(=O)(=O)N2CCCCCC2)c1)N1CCOCC1	–	inconclusive: -7.98% [at 46 µM]
C/C(=N\NC(=O)C(=O)N/N=C(\C)c1cccc(O)c1)c1cccc(O)c1	–	inactive: -21.7% [at 9.22 µM]

Compound	Potency	ratio change, negative = inhibition
CN(C(=O)CSc1nc2ccc(NC(=O)c3ccc(F)cc3)cc2s1)c1ccccc1	–	inconclusive: -4.47% [at 46 µM]
CCOC(=O)Nc1ccc2c(c1)N(C(=O)CCN1CCOCC1)c1ccccc1S2	inconclusive: 0.0004 µM [inhibitor, full curve, poor fit]	–
CCCOc1ccc(/C(O)=C2/C(=O)C(=O)N(CCOC)C2c2cccnc2)cc1 (stereo unspecified)	–	inconclusive: 12.3%
O=C(Nc1nc(N2C(=O)c3ccccc3C2=O)n(-c2ccccc2)n1)c1ccccc1	–	inactive: 5.05%
CC(C)NC(=O)C1CCN(C2CCN(Cc3ccc4cccc(F)c4n3)CC2)CC1	–	inconclusive: 18.6% [at 46 µM]
CN(C)S(=O)(=O)c1ccc(NC(=O)CN2CCC(Cc3ccccc3)CC2)cc1	inconclusive: 5.01 µM [inhibitor, single point]	–
Cc1cc(=O)oc2cc(OCC(=O)NCCc3nc4ccccc4[nH]3)ccc12	–	inactive: 10.7%
COc1ccc(NC(=O)/C=C/c2ccco2)cn1	–	inconclusive: -14.8% [at 46 µM]
CCCC(C(=O)NC1CCCC1)N(C(=O)Cn1nnc(-c2ccc(C)o2)n1)C1CCCC1 (stereo unspecified)	–	inactive: 7.42%
CNc1oc(C)nc1S(=O)(=O)c1ccccc1	–	inactive: 10.2%
Cc1c(NC(=O)Cc2noc3ccccc23)cccc1[N+](=O)[O-]	–	inconclusive: 21.8% [at 46 µM]
COc1cc(-c2cc(C(=O)Nc3ccc(S(=O)(=O)NCc4ccco4)cc3)c3ccccc3n2)cc(OC)c1OC	–	inconclusive: -16.5%
O=C(CSc1ccc(-c2ccccn2)nn1)N1CCc2ccccc21	–	inconclusive: -8.97% [at 46 µM]
COC(=O)N/N=C/c1cc(Cl)cc(Cl)c1OCc1ccccc1F	–	inconclusive: -43.5%
C=CCn1c(C(CC)CC(C)(C)O)n[nH]c1=S (stereo unspecified)	–	inconclusive: 1.97% [at 46 µM]
CCOc1cc2[nH]c(=S)n(CCCOC)c(=O)c2cc1OCC	–	inactive: 6.69%
CCOC(=O)c1cnc2ccccc2c1NCCO	–	inconclusive: 6.65%
CCOP(=O)(c1ccccc1)c1nc(-c2ccc(F)cc2)oc1N1CCCCC1 (stereo unspecified)	–	inactive: 3.48%
NC(=O)c1cc(N)ccc1N1CCCCC1	–	inconclusive: 20.7% [at 9.22 µM]
CC1=C(C#N)C(c2ccc(O)cc2)C2=C(CC(C)(C)CC2=O)N1 (stereo unspecified)	–	inactive: -2.29%
O=C(OCC(=O)C12CC3CC(CC(C3)C1)C2)c1cccnc1Cl	–	inactive: -0.51%
O=C(CCn1c(=S)[nH]c2ccccc2c1=O)N1CCOCC1	–	inactive: 5.05%
COc1ccc(/C=C/C(=O)c2cc(Br)ccc2O)cc1OC	–	inconclusive: -13.8% [at 46 µM]
CCOc1cc(CNCCCN2CCOCC2)ccc1OCC(=O)NC(C)(C)C	–	inconclusive: 21.9% [at 46 µM]
Cc1nc(C)c(-c2csc(NCc3ccccc3)n2)s1	inconclusive: 35.5 µM [falling, single point]	–
O=C(c1ccccc1[N+](=O)[O-])N1CCC(Cc2ccccc2)CC1	–	inconclusive: 2.63% [at 0.0737 µM]

Full records, quoted from the list. Order of values: Potency | ratio change, negative = inhibition
COc1ccc(S(=O)(=O)NCc2ccncc2)cc1OC reads – | inconclusive: -42.7%
S=C(NCCCN1CCOCC1)Nc1ccc(Cl)cc1 reads – | inconclusive: 16.5%
O=C(c1ccccc1[N+](=O)[O-])N1CCC(Cc2ccccc2)CC1 reads – | inconclusive: 2.63% [at 0.0737 µM]
CCCC(C(=O)NC1CCCC1)N(C(=O)Cn1nnc(-c2ccc(C)o2)n1)C1CCCC1 (stereo unspecified) reads – | inactive: 7.42%
